Laboratory results taken from PubChem BioAssay AID252 (DTP/NCI, 2004).
The list does not hold the whole screen: it gathers some chemical classes. Not every dose and run of a compound is shown. T/C: endpoint of the treated group in % of that of the vehicle group. Some doses have a count of surviving animals in place of a T/C: the source holds a T/C of zero for them, seemingly a mark for toxic or unscored doses. Some doses without a T/C left all or most animals alive at the check, yet need not have been tolerated: the source hardly ever lists a survival T/C far under the control, and the zero likely stands for such cases as well. Counts of survivors are from the toxicity check (mostly the fifth day) where no day follows; animals may have died later. Schedule codes are those of the source, taken here to give the interval after Q, in days (D) or hours (H), and the number of doses after X. Where survival is the endpoint, this PubChem deposit counts one and a half times the control or more as active, and values a quarter to a half above the control carry no call in these data; other NCI protocols may use other cut-offs. Some entries hold several experiments; the results are listed from low to high. Some T/C values carry the count of animals alive at the toxicity check (mostly the fifth day); where neither a count nor a note follows, no animal had died by that day.

Tested on: BDF1 mice, intracerebral L1210 leukemia, survival T/C
Test: NCI In Vivo Anticancer Drug Screen. Data for tumor model L1210 Leukemia (intracerebral) in B6D2F1 (BDF1) mice
Settings: higher T/C = longer survival
Protocol: The antitumor activity of compounds was measured in mice bearing transplantable tumors. Survival or tumor size were measured and the results are expressed as the measurement made in the treated group (T) divided by the measurement made in the vehicle treated control group (C). The tumor model used in this assay is L1210 Leukemia (intracerebral) in B6D2F1 (BDF1) mice

OC(CNCCCl)C(O)C(O)C(O)CNCCCl (stereo unspecified)
T/C (T/C endpoint: mean survival time, dose: 7.5 mg/kg/injection, schedule: Q01DX015 (ip), vehicle: saline): 103 % of control
T/C (T/C endpoint: mean survival time, dose: 11.0 mg/kg/injection, schedule: Q01DX015 (ip), vehicle: saline): 110 % of control
T/C (T/C endpoint: mean survival time, dose: 17.0 mg/kg/injection, schedule: Q01DX015 (ip), vehicle: saline): 110 % of control

NC(=O)c1[nH]cnc1/N=N\N(CCCl)CCCl
T/C (T/C endpoint: mean survival time, dose: 125.0 mg/kg/injection, schedule: Q01DX001 (ip), vehicle: carboxymethylcellulose (CMC)): 108 % of control
T/C (T/C endpoint: mean survival time, dose: 250.0 mg/kg/injection, schedule: Q01DX001 (ip), vehicle: carboxymethylcellulose (CMC)): 115 % of control
T/C (T/C endpoint: mean survival time, dose: 500.0 mg/kg/injection, schedule: Q01DX001 (ip), vehicle: carboxymethylcellulose (CMC)): 102 and 122 % of control
T/C (T/C endpoint: mean survival time, dose: 750.0 mg/kg/injection, schedule: Q01DX001 (ip), vehicle: carboxymethylcellulose (CMC)): 115 % of control
survivor count (T/C endpoint: mean survival time, dose: 1000.0 mg/kg/injection, schedule: Q01DX001 (ip), vehicle: carboxymethylcellulose (CMC)): 10 of 10
survivor count (T/C endpoint: mean survival time, dose: 1500.0 mg/kg/injection, schedule: Q01DX001 (ip), vehicle: carboxymethylcellulose (CMC)): 6 of 10
T/C (T/C endpoint: median survival time, dose: 10.0 mg/kg/injection, schedule: Q01DX009 (ip), vehicle: other): 98 % of control
T/C (T/C endpoint: median survival time, dose: 20.0 mg/kg/injection, schedule: Q01DX009 (ip), vehicle: other): 120 % of control
T/C (T/C endpoint: median survival time, dose: 40.0 mg/kg/injection, schedule: Q01DX009 (ip), vehicle: other): 118 % of control
T/C (T/C endpoint: median survival time, dose: 80.0 mg/kg/injection, schedule: Q01DX009 (ip), vehicle: other): 105 % of control [9 of 10 alive]
T/C (T/C endpoint: median survival time, dose: 160.0 mg/kg/injection, schedule: Q01DX009 (ip), vehicle: other): 109 % of control
survivor count (T/C endpoint: median survival time, dose: 320.0 mg/kg/injection, schedule: Q01DX009 (ip), vehicle: other): 10 of 10
survivor count (T/C endpoint: median survival time, dose: 640.0 mg/kg/injection, schedule: Q01DX009 (ip), vehicle: other): 8 of 10
